# Data taken from the supplement of paper PMC6411743.
# ± gives the standard deviation of the averaged measurements. Only a part is listed here, and it is no random draw.
# Assays:
# Assay in all cases: NP40-soluble protein abundance relative to vehicle (solubility fold change) (ratio); higher = more soluble protein in presence of AMP-PNP
# [1] = target: T1, UniProt Q96RF0-2
# T1 sequence (whole entry): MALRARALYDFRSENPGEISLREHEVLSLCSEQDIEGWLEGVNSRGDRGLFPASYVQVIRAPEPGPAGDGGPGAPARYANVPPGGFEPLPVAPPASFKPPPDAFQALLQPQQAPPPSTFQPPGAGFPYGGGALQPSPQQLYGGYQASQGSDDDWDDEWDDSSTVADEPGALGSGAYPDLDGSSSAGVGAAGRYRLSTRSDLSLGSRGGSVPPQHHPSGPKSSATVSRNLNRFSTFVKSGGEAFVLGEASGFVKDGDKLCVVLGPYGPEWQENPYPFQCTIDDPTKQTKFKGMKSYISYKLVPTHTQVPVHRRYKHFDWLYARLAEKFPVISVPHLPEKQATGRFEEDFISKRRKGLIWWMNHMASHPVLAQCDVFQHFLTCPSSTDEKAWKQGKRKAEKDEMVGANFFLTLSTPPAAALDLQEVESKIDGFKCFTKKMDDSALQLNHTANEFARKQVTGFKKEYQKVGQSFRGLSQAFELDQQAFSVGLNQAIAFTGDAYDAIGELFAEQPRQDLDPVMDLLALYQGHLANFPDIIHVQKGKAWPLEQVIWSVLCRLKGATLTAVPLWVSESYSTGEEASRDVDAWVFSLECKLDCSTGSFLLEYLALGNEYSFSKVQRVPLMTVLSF
# Outline: (§1)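 Values are fold changes against the detergent-processed vehicle, based on vsn-normalised intensities. Jurkat crude lysate was treated at eight concentrations from 0.1 to 10 mM (10 min at room temperature, then 3 min at 37 °C), solubilised with 0.8% NP40 and benzonase, ultracentrifuged and analysed by TMT-labelled LC-MS/MS over three independent experiments.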
# [2] = target: T2, UniProt Q99808 and related entries
# T2 sequence (whole entry): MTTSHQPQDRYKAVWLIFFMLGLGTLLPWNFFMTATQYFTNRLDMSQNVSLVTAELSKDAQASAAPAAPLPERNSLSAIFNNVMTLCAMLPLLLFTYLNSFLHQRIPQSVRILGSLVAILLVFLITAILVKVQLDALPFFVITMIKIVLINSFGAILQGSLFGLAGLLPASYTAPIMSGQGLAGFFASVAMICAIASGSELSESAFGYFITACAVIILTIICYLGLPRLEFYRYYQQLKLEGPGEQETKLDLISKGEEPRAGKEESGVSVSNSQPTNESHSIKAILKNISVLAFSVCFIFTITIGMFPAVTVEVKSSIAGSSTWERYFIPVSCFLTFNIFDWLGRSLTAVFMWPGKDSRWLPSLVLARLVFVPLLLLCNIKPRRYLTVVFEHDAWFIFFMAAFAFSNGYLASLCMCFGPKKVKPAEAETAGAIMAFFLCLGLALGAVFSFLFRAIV
# Outline: as §1
# [3] = target: T3, UniProt Q9BPX7 and related entries
# T3 sequence (whole entry): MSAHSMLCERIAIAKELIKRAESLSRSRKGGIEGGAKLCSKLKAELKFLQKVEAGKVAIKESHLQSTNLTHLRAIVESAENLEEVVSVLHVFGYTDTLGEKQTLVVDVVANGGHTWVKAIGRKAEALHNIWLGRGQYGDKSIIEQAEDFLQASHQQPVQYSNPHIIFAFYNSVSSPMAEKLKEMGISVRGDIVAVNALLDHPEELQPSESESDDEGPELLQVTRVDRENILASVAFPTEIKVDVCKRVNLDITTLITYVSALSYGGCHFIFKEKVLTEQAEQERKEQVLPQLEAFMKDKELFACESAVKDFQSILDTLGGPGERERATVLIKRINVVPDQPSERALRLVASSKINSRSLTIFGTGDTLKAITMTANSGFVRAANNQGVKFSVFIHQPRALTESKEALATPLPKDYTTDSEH
# Outline: as §1
# [4] = target: T4, UniProt Q9BQ61
# T4 sequence (whole entry): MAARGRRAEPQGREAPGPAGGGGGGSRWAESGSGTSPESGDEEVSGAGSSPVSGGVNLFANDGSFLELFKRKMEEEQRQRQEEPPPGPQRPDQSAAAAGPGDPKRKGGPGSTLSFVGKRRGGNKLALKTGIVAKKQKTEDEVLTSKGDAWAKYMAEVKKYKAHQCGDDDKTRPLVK
# Outline: as §1
# [5] = target: T5, UniProt Q9BRT3
# T5 sequence (whole entry): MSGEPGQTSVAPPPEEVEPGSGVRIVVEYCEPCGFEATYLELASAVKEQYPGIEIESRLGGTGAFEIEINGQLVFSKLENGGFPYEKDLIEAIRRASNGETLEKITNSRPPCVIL
# Outline: as §1
# [6] = target: T6, UniProt Q9BRX9
# T6 sequence (whole entry): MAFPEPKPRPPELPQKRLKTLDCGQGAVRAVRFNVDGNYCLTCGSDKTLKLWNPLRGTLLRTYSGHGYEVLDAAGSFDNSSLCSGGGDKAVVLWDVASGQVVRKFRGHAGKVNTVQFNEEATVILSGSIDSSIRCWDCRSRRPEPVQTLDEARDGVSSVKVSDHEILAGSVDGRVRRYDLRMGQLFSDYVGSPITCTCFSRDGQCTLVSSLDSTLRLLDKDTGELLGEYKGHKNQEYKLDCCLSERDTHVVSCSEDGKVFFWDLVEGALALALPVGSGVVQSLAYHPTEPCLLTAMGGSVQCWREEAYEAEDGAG
# Outline: as §1
# [7] = target: T7, UniProt Q9BTC8 and related entries
# T7 sequence (whole entry): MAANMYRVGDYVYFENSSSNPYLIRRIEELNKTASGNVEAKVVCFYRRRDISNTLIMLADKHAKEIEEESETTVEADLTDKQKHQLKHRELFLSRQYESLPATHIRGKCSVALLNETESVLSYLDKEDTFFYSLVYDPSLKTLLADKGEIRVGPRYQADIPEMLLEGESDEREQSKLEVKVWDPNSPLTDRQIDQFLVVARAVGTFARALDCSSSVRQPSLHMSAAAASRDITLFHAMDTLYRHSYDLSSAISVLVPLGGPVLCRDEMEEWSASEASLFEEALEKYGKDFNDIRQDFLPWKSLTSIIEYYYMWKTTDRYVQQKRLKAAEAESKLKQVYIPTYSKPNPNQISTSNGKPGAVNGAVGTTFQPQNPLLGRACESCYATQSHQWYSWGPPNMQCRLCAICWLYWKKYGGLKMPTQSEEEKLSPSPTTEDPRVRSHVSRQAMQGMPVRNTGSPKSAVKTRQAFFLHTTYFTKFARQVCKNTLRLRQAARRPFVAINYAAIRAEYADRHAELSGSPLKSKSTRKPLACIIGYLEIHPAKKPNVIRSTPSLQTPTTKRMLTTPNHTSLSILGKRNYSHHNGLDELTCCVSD
# Outline: as §1
# [8] = target: T8, UniProt Q9BU02 and related entries
# T8 sequence (whole entry): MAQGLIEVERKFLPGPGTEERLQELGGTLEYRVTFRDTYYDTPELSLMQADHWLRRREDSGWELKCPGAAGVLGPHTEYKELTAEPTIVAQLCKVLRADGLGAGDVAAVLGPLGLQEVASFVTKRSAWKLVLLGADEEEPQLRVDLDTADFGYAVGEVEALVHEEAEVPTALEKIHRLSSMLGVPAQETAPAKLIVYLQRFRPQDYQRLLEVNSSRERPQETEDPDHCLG
# Outline: as §1
# [9] = target: T9, UniProt Q9BUA3
# T9 sequence (whole entry): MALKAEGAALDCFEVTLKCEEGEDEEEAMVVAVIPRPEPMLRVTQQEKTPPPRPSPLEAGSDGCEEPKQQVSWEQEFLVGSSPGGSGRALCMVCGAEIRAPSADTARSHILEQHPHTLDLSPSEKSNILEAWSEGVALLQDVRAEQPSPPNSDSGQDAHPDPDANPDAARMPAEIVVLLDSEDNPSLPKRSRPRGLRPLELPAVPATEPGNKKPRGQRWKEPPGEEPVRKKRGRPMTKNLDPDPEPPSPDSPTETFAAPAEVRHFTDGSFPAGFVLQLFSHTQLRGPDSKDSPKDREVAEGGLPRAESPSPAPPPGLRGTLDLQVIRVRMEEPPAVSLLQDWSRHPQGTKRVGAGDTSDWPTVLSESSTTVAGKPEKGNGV
# Outline: as §1
smiles,measurement,setting,value
Nc1ncnc2c1ncn2[C@@H]1O[C@H](COP(=O)(O)OP(=O)(O)NP(=O)(O)O)[C@@H](O)[C@H]1O [adenylyl imidodiphosphate],NP40-soluble protein abundance,[1]; concentration: 6mM,1.01 ± 0.012
same,NP40-soluble protein abundance,[1]; concentration: 8mM,1.03 ± 0.0045
same,NP40-soluble protein abundance,[1]; concentration: 10mM,0.9904 ± 0.0087
same,NP40-soluble protein abundance,[2]; concentration: 1mM,0.919 ± 0.083
same,NP40-soluble protein abundance,[2]; concentration: 2mM,0.846 ± 0.03
same,NP40-soluble protein abundance,[2]; concentration: 4mM,0.928 ± 0.022
same,NP40-soluble protein abundance,[2]; concentration: 6mM,0.937 ± 0.084
same,NP40-soluble protein abundance,[2]; concentration: 8mM,0.957 ± 0.074
same,NP40-soluble protein abundance,[2]; concentration: 10mM,0.89 ± 0.03
same,NP40-soluble protein abundance,[3]; concentration: 1mM,1.03 ± 0.038
same,NP40-soluble protein abundance,[3]; concentration: 2mM,1.04 ± 0.013
same,NP40-soluble protein abundance,[3]; concentration: 4mM,1.02 ± 0.029
same,NP40-soluble protein abundance,[3]; concentration: 6mM,1.02 ± 0.03
same,NP40-soluble protein abundance,[3]; concentration: 8mM,1.02 ± 0.027
same,NP40-soluble protein abundance,[3]; concentration: 10mM,1.04 ± 0.02
same,NP40-soluble protein abundance,[4]; concentration: 1mM,1.01 ± 0.032
same,NP40-soluble protein abundance,[4]; concentration: 2mM,1.02 ± 0.088
same,NP40-soluble protein abundance,[4]; concentration: 4mM,0.973 ± 0.057
same,NP40-soluble protein abundance,[4]; concentration: 6mM,0.967 ± 0.077
same,NP40-soluble protein abundance,[4]; concentration: 8mM,0.906 ± 0.05
same,NP40-soluble protein abundance,[4]; concentration: 10mM,1.02 ± 0.013
same,NP40-soluble protein abundance,[5]; concentration: 1mM,0.926 ± 0.021
same,NP40-soluble protein abundance,[5]; concentration: 2mM,1 ± 0.064
same,NP40-soluble protein abundance,[5]; concentration: 4mM,0.917 ± 0.046
same,NP40-soluble protein abundance,[5]; concentration: 6mM,0.8874 ± 0.0078
same,NP40-soluble protein abundance,[5]; concentration: 8mM,0.8618 ± 0.0024
same,NP40-soluble protein abundance,[5]; concentration: 10mM,0.815 ± 0.021
same,NP40-soluble protein abundance,[6]; concentration: 1mM,1 ± 0.038
same,NP40-soluble protein abundance,[6]; concentration: 2mM,0.959 ± 0.053
same,NP40-soluble protein abundance,[6]; concentration: 4mM,1.01 ± 0.045
same,NP40-soluble protein abundance,[6]; concentration: 6mM,0.988 ± 0.028
same,NP40-soluble protein abundance,[6]; concentration: 8mM,0.999 ± 0.01
same,NP40-soluble protein abundance,[6]; concentration: 10mM,0.99 ± 0.028
same,NP40-soluble protein abundance,[7]; concentration: 1mM,0.976 ± 0.035
same,NP40-soluble protein abundance,[7]; concentration: 2mM,0.98 ± 0.022
same,NP40-soluble protein abundance,[7]; concentration: 4mM,1 ± 0.082
same,NP40-soluble protein abundance,[7]; concentration: 6mM,1.08 ± 0.013
same,NP40-soluble protein abundance,[7]; concentration: 8mM,1.09 ± 0.032
same,NP40-soluble protein abundance,[7]; concentration: 10mM,1.1 ± 0.053
same,NP40-soluble protein abundance,[8]; concentration: 1mM,1.03 ± 0.054
same,NP40-soluble protein abundance,[8]; concentration: 2mM,1.06 ± 0.05
same,NP40-soluble protein abundance,[8]; concentration: 4mM,1.04 ± 0.08
same,NP40-soluble protein abundance,[8]; concentration: 6mM,1.01 ± 0.049
same,NP40-soluble protein abundance,[8]; concentration: 8mM,1.02 ± 0.082
same,NP40-soluble protein abundance,[8]; concentration: 10mM,0.994 ± 0.098
same,NP40-soluble protein abundance,[9]; concentration: 1mM,1.02 ± 0.026
same,NP40-soluble protein abundance,[9]; concentration: 2mM,1.036 ± 0.0066
same,NP40-soluble protein abundance,[9]; concentration: 4mM,1.013 ± 0.0039
same,NP40-soluble protein abundance,[9]; concentration: 6mM,0.981 ± 0.048

# As a short view, some entries already given:
smiles,measurement,setting,value
Nc1ncnc2c1ncn2[C@@H]1O[C@H](COP(=O)(O)OP(=O)(O)NP(=O)(O)O)[C@@H](O)[C@H]1O [adenylyl imidodiphosphate],NP40-soluble protein abundance,[3]; concentration: 10mM,1.04 ± 0.02
same,NP40-soluble protein abundance,[4]; concentration: 1mM,1.01 ± 0.032
same,NP40-soluble protein abundance,[4]; concentration: 2mM,1.02 ± 0.088
same,NP40-soluble protein abundance,[4]; concentration: 4mM,0.973 ± 0.057
